# About 5,400 (1.8%) of roughly 300,000 compounds were called active. The inconclusive results got no clear call from the source; some entries with a clear call stand among them for comparison. Calls come from the whole dose curve; tested in HEK293 cells. Potencies of inconclusive entries are doubtful fits and often do not repeat.
# Assay: qHTS for inhibitors of binding or entry into cells for Marburg Virus
# Details: Marburg virus pseudotyped entry inhibition, cell reporter; activity change, negative = inhibition: at 37.8 µM (top of the series) unless noted
# % is set by controls: 0 for no effect and ±100 for the full control effect; potency is the fitted concentration of half-maximal effect.
Compound,Potency,"activity change, negative = inhibition"
O=c1oc2ccccc2c(O)c1CN1CCCCC1,"inconclusive: 29.1 µM [inhibitor, single point]",
Cc1ccccc1OCc1nnc(SCCN2CCCC2)n1-c1ccccc1,"inconclusive: 2.24 µM [inhibitor, full curve, poor fit]",
CCOC(=O)C1(C(F)(F)F)N=C(C(F)(F)F)Nc2ccc(F)cc21 (stereo not drawn),"inconclusive: 5.62 µM [activator, single point]",
CN=C1S/C(=C\c2cc(C)n(-c3ccccc3F)c2C)C(=O)N1C,"inconclusive: 0.411 µM [activator, partial curve, poor fit]",
CCOC(=O)Cc1csc(NC(=O)CSc2nc(-c3ccccc3)c(C#N)c(=O)[nH]2)n1,"inconclusive: 15.8 µM [inhibitor, single point]",
CC(SCc1ccccc1)C(=O)N/N=C/c1cc2c(cc1Br)OCO2 (stereo not drawn),"inconclusive: 10 µM [inhibitor, partial curve, poor fit]",
Cc1oc(-c2ccoc2)nc1CN(CC1CCC(=O)N1)C(C)C (stereo not drawn),"inconclusive: 14.1 µM [inhibitor, single point]",
O=C(COC(=O)c1c2c(nc3ccccc13)CCCC2)c1cccs1,,inactive: 7.09%
CNC(=O)C1CC(=O)N(CCc2ccc(C)cc2)C1 (stereo not drawn),"inconclusive: 5.01 µM [activator, partial curve]",
COC(=O)c1ccc(NC(=O)Nc2ccc(OC)cc2)cc1,"inconclusive: 0.708 µM [inhibitor, full curve, poor fit]",
Cc1cc(C)n(-c2ccc(C(=O)OCC(=O)Nc3ccc(S(=O)(=O)N4CCCCC4)cc3)cc2)n1,"inconclusive: 35.5 µM [activator, single point]",
O=C(NCc1ccccn1)c1nc(Cn2ccc([N+](=O)[O-])n2)no1,,inactive: 1.75% [at 46.1 µM]
CCOc1cc(/C=C/C(=O)c2ccc(C)cc2)ccc1OCC(=O)N(C)C,"inconclusive: 0.0517 µM [inhibitor, full curve, poor fit]",
Oc1ccc(Br)cc1/C=N/NC(=S)NCCc1ccccc1,"inconclusive: 35.5 µM [inhibitor, single point]",
CCOc1ccc(Oc2nc(NC)nc(N3CCOCC3)n2)nn1,,inactive: 11.3% [at 46.1 µM]
O=C(O)c1cc(Cl)c(Cl)cc1C(=O)Nc1cccc2ncccc12,"inconclusive: 4.47 µM [activator, single point]",
C=CCn1c(SCCCCCC)nc(O)cc1=O,,inactive: 18.1%
COCCN(C(=O)c1ccco1)c1nc(-c2ccccc2)cs1,"inconclusive: 11.2 µM [inhibitor, partial curve, poor fit]",
CC(C)C(=O)Nc1ccc(NC(=O)c2ccccn2)cn1,active: 11.2 µM,
CN1CCN(c2ccc(C(=O)c3ccc(F)cc3)cc2)CC1,"inconclusive: 0.447 µM [activator, full curve, poor fit]",
Cn1c(C(=O)N2CCN(c3ccc([N+](=O)[O-])cc3)CC2)cc2c(=O)[nH]c3ccccc3c21,"inconclusive: 15.8 µM [inhibitor, single point]",
CCOc1ccc2nc(N3C(=O)CNC3=S)sc2c1,"inconclusive: 6.31 µM [activator, partial curve, poor fit]",
COc1ccc(NS(=O)(=O)c2cc(OC)ccc2NC(=O)c2cc(C)oc2C)cc1,"inconclusive: 2.51 µM [inhibitor, full curve, poor fit]",

Compound,Potency,"activity change, negative = inhibition"
O=C/C(=C\Nc1ccccn1)c1nc2cc(Cl)ccc2o1,"inconclusive: 12.6 µM [inhibitor, partial curve, poor fit]",
COC(=O)c1ccccc1NC(=O)C1CCCO1 (stereo not drawn),"inconclusive: 0.891 µM [activator, full curve, poor fit]",
Cc1nc2c(c(C)nn2-c2ccccc2)c(C)c1CCC(=O)NCCc1ccccc1,"inconclusive: 5.62 µM [inhibitor, single point]",
O=C(c1sc2ccccc2c1Cl)N(Cc1ccccc1Cl)C1CCS(=O)(=O)C1 (stereo not drawn),"inconclusive: 14.6 µM [inhibitor, partial curve, poor fit]",
O=C(O)c1ccc(S(=O)(=O)c2ccccc2)s1,,inactive: 0.365% [at 46.1 µM]
CCN(CC(=O)Nc1sc2c(c1C#N)CCC(C)C2)Cc1nc2ccccc2c(=O)[nH]1 (stereo not drawn),"inconclusive: 8.91 µM [inhibitor, partial curve]",
CCCCn1c(=O)[nH]c(=O)c2c1nc(-c1ccsc1)n2Cc1ccccc1,"inconclusive: 1 µM [inhibitor, full curve, poor fit]",
CCc1nnc(NC(=O)/C=C/c2ccco2)s1,,inactive: -2.37%
O=C(Nc1ccccc1)c1cc(N2CCOCC2)nc2ccccc12,"inconclusive: 15.8 µM [inhibitor, single point]",
CS(=O)(=O)c1ncc(Cl)c(C(=O)Nc2ccc(N3CCOCC3)cc2)n1,"inconclusive: 18.3 µM [inhibitor, partial curve]",
CCCS(=O)(=O)c1nc(S(=O)(=O)c2ccc(C)cc2)c(N2CCCC2)s1,"inconclusive: 7.08 µM [inhibitor, full curve, poor fit]",
O=C(NCC(F)(F)F)Nc1cccnc1,"inconclusive: 35.5 µM [activator, single point]",
O=C(CCNS(=O)(=O)c1ccc(Cl)cc1)OCC(=O)N1CCN(C(=O)c2ccco2)CC1,,inactive: -2.66%
O=C(CSc1nc2c(c(=O)[nH]1)CN(Cc1ccc3c(c1)OCO3)CC2)Nc1cccc(Cl)c1,,inactive: -0.264% [at 46.1 µM]
CCCNC(=O)Cn1cnc2sc(C(=O)Nc3cc(OC)c(OC)c(OC)c3)c(C)c2c1=O,"inconclusive: 0.184 µM [inhibitor, single point]",
C=CCn1c(SC(F)F)nc2scc(-c3ccco3)c2c1=O,"inconclusive: 35.5 µM [inhibitor, single point]",
CCCCn1c(=O)n(Cc2cccc(F)c2)c(=O)c2c1ncn2Cc1ccco1,"inconclusive: 0.398 µM [inhibitor, partial curve, poor fit]",
Cc1cccc(NCC(=O)N/N=C\c2c[nH]c3ccccc23)c1,"inconclusive: 7.08 µM [inhibitor, partial curve, poor fit]",
CCc1n[nH]c(=S)n1/N=C/c1ccc(NC(C)=O)cc1,,inactive: 1.14%
CC(=O)c1ccc(N2CCN(S(=O)(=O)c3ccc4c(c3)CC(C)N4C(C)=O)CC2)cc1 (stereo not drawn),"inconclusive: 8.91 µM [inhibitor, partial curve, poor fit]",
Fc1c(F)c(F)c(N/N=C/c2c[nH]c3ccccc23)c(F)c1F,"inconclusive: 35.5 µM [inhibitor, single point]",
CN(C(=O)C1=CC(c2ccc3c(c2)OCO3)=NS(=O)(=O)N1C)c1ccccc1,"inconclusive: 35.5 µM [inhibitor, single point]",
Cc1ccc2nc(N3C(=O)C(O)=C(C(=O)c4ccco4)C3c3cccc(O)c3)sc2c1 (stereo not drawn),"inconclusive: 3.16 µM [activator, full curve]",

# As a short view, some entries already given:
Compound,Potency,"activity change, negative = inhibition"
O=C/C(=C\Nc1ccccn1)c1nc2cc(Cl)ccc2o1,"inconclusive: 12.6 µM [inhibitor, partial curve, poor fit]",
COC(=O)c1ccccc1NC(=O)C1CCCO1 (stereo not drawn),"inconclusive: 0.891 µM [activator, full curve, poor fit]",

# Continued:

Compound,Potency,"activity change, negative = inhibition"
Cc1cc(C(=O)NC2CCCc3c2cnn3-c2cccc(C)c2C)c(C)o1 (stereo not drawn),"inconclusive: 5.01 µM [inhibitor, full curve, poor fit]",
CCN(CC)C(=O)CSc1nc2ccccc2c(=O)n1OC,,inactive: -4.07%
COc1cccc(C(=O)Nc2cccc(-c3ccc(N4CCOCC4)nn3)c2)c1OC,"inconclusive: 1.26 µM [activator, partial curve, poor fit]",
COC(=O)c1cc(C(=O)c2ccc(Cl)cc2)n2c(=O)/c(=C\N(C)C)sc12,,inactive: -9.48% [at 46.1 µM]
CCOC(=O)c1cc(NC(=O)c2ccc(C)cc2)c(=O)n2c1oc1ccc(Cl)cc12,"inconclusive: 20 µM [activator, single point]",
COC(=O)CC1C(=O)NCCN1C(=O)NC1CCCCC1 (stereo not drawn),"inconclusive: 14.1 µM [activator, single point]",
O=C(Nc1cccc(F)c1)c1ccco1,,inactive: 15.2% [at 46.1 µM]
Cc1ccc(NC(=O)Cn2c(=O)n(CCc3ccccc3)c(=O)c3c4c(sc32)CCCC4)c(C)c1,"inconclusive: 22.4 µM [inhibitor, single point]",
COc1ccc(S(=O)(=O)Cc2ccc(C(=O)N3CCN(c4cccc(C)c4)C(C)C3)o2)cc1 (stereo not drawn),,inactive: 0.856%
COC(=O)C1=NN(N=O)C2(CC(=O)N(c3cc(C)cc(C)c3)C2=O)C1 (stereo not drawn),,inactive: 4.7%
COc1ccccc1-c1ccc(SCc2ccc(C)cc2)nn1,"inconclusive: 3.16 µM [activator, full curve]",
CCOc1ccc(-n2c(SCc3cc(=O)oc4cc(C)c(C(C)C)cc34)nnc2-c2cccnc2)cc1,,inactive: -21.5%
Cc1ccc(-n2c(CCc3ccccc3)nnc2SCC(=O)NCc2ccccc2)cc1C,"inconclusive: 6.51 µM [inhibitor, full curve, poor fit]",
CCCCOC(=O)Nc1nc2ccccc2s1,,inactive: -25.3% [at 46.1 µM]
CC(C)Cn1c(N)c(C(=O)COC(=O)c2ccncc2)c(=O)n(C)c1=O,,inactive: 4.75% [at 46.1 µM]
COc1ccc(Cc2nnc(NC(C)=O)s2)cc1,,inactive: 28.4% [at 46.1 µM]
Cc1ccc(NC(=O)CN(C)C(=O)CNC(=O)c2sc3ccccc3c2Cl)cc1,"inconclusive: 2.82 µM [activator, full curve, poor fit]",
O=C1c2c(O)cc(O)cc2OC(c2ccc(O)c(O)c2)C1O (stereo not drawn),"inconclusive: 6.51 µM [activator, single point]",
Cc1c(N)cccc1-n1cccc1,,inactive: -10.6% [at 46.1 µM]
CC(=O)Nc1nc(-c2ccccc2)nc(C)c1C(C)=O,,inactive: 0.957%
COc1ccc(CN2CCN(C(=O)CCC(=O)Nc3nnc(C(C)C)s3)CC2)cc1F,,inactive: -1.28% [at 46.1 µM]
O=C(Nc1ncc(Cc2ccccc2)s1)C1COc2ccccc2O1 (stereo not drawn),"inconclusive: 0.501 µM [activator, partial curve, poor fit]",

# Source: PubChem BioAssay AID540276 (National Center for Advancing Translational Sciences (NCATS), 2011)
